Data set [1] deals with RNA polymerase II (12-subunit) (Sus scrofa (thymus)). The data set can be described thus: mass photometry. As to conditions: 50 mM KCl, 4 mM Mg2+, native protein.
The subject of another data set is TFIIF (RAP74ΔC). The data set can be described thus: EMSA. Particulars: 0-60 nM TFIIF, 1 mM Mg2+, reduced vs wild type; EMSA: 20 mM HEPES-NaOH pH 7.25, 150 mM NaCl, 1 mM MgCl2, 5% glycerol, 40 ug/ml BSA, 1 mM DTT, 5 nM RNA, 30 C (gel 4 C); recombinant protein; protein details: His10-Arg7-SUMO tag, 3C cleaved; label: 3' ATTO 488 (anisotropy, EMSA). Background: Mobility shift assays separate free from complexed probe on a gel.

For part of these data: A weaker result is weaker than the reference pair of the same experiment. For part of these data: For at least one entry, the source does not settle the construct or the ends of the probe. For part of these data: At least one verdict was read from the data and is not stated in words by the source.

Consider “GAGGCAGGAGAAUGGCGUGAACCCGGGAGGUGGACGAGAUCGCUCCAGCCUGGGUGACAGAGCGAGACUCUGUCUC [minimal Alu-RA]”, for which the binding result in data set [1] is recorded as “binds”.
Take “GGCCGGGCGCGGUGGCUCACGCCUGUAAUCCCAGCACUUUGGGAGGCCGAGGCGGGCGGAUCACAAGGUCAGGAGAUCGAGACCAUCCUGGCUAACACAGUGAAACCCCGUCUCUACU [Alu-LA (scAlu)]”: the binding result is “binds” in data set [1] (label: 3' ATTO 488 (anisotropy, EMSA)) and “binds more weakly” in the data set with TFIIF (RAP74ΔC).

(Values after PMC11996674.)
